Measurements taken from US20240360175A1 (Centessa Pharmaceuticals (UK) Limited, priority 2021, published 2024).

Experiment: general procedure: Fmoc solid-phase peptide synthesis; Fmoc Rink amide AM resin
Conditions: whole synthesis, scale 0.30 mmol, AcOH salt

**Q.** Which isolated mass does the source give for “H2N-(PEG)6-N-Phenethyl-Gly-Asn-Hyp(4-OH)-Ala-Phg-Gly-Ile-Leu-Thr-2-AOC-NH2” here?
**A.** The isolated mass was 51.2 mg.

**Q.** And the isolated yield?
**A.** Its isolated yield is 10.4%.
